Results reported in publication PMC9428852, “The N-linker region of hERG1a upregulates hERG1b potassium channels” (The Journal of Biological Chemistry, 2022).
No constants are given. Whether binding was seen depends on the method and setting. In cells and extracts the contact can be indirect. Some binding calls cover weakened binding; strength is not graded here.

Target: hERG1b N1–56-Citrine (human) (UniProt Q12809)
Test: FRET or BRET; FRET two-hybrid in single HEK293 cells cotransfected with an mCFP fusion (donor) and a Citrine fusion (acceptor), 24 to 48 h after transfection; spectral separation, Ratio A − Ratio A0

Substance: hERG1a N1–354-mCFP (from UniProt Q12809 1-354) (domain or fragment)
- binding: binds

Substance: hERG1 C666–1159-mCFP (from UniProt Q12809 666-1159) (domain or fragment)
- binding: no binding
